Literature values, collected in US9333279B2, “Coated stent comprising an HMG-CoA reductase inhibitor” (priority 2001, dated 2016).
At least one structure is not confirmed: it was looked up by name or label, or the drawing left a doubt.

System: smooth muscle cells
Conditions: stated as reference threshold, no test described

COCc1c(C(C)C)nc(C(C)C)c(/C=C/[C@@H](O)C[C@@H](O)CC(=O)O)c1-c1ccc(F)cc1 [cerivastatin]
concentration needed to inhibit proliferation of smooth muscle cells: 0.5 µg/mL
